Test system: monkey model

For `Clc1ccc2c(c1)CCc1cccnc1C2=C1CCNCC1` [form 1, 8-chloro-6,11-dihydro-11-(4-piperidylidene)-5H-benzo[5,6]cyclohepta[1,2-b]pyridine], the Antihistaminic activity was “demonstrated”.
